# The whole screen tested about 330,000 compounds, of which about 7,700 (2.3%) were called active. Inconclusive results, whose numbers are uncertain, are shown with a selection of clear calls. Calls follow the shape of the dose curve; as a rule, active = well fitted inhibition curve with a large enough effect; inconclusive = small, poorly fitted or top-dose-only effect, or effect the other way; inactive = flat fitted curve, though single readings scatter. Where the call is inconclusive, the potency comes from a doubtful curve fit.
# Assay: qHTS screen for small molecules that inhibit ELG1-dependent DNA repair in human embryonic kidney (HEK293T) cells expressing luciferase-tagged ELG1; also: nearly all actives have a fitted effect of over 55% in size
# Settings: HEK293T ELG1-luciferase reporter, luminescence, 16 h, DNA damage induced by 5-fluorouridine; activity change, negative = inhibition: at 46.1 µM (top of the series)
# Method in brief: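 Quantitative HTS, concentration-response format. 2,000 cells/well co-treated with 5-fluorouridine and compound, 16 hr in 5% CO2 at 37 °C; ONE-Glo luminescence read after 30 min.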
# % is scaled to controls: 0 for no effect and ±100 for the full control effect; potency is read from the fitted curve at half-maximal effect.
Structure (SMILES),Potency,"activity change, negative = inhibition"
O=C(c1ccccc1)c1cnc(-c2ccccc2)s1,"inconclusive: 4.61 µM [activator, partial curve]",
COc1cccc(OCc2cc(C(=O)N3CCN(C(C)=O)CC3)no2)c1,"inconclusive: 16.4 µM [activator, partial curve]",
O=C(/C=C/c1ccc(F)cc1)NCc1cccs1,"inconclusive: 18.4 µM [activator, partial curve]",
COc1ccc(NC(=O)CN(C)C(=O)c2n[nH]c3ccccc23)cc1,"inconclusive: 23.1 µM [activator, partial curve, poor fit]",
CCCSc1ccc([C@H]2N[C@@](CC(C)C)(C(=O)OC)[C@H]3C(=O)N(CC)C(=O)[C@@H]23)cc1,,inactive: -13.1%
O=C(Nc1cc(C(=O)N2CCOCC2)cc(C(=O)N2CCOCC2)c1)c1cc(F)c(F)cc1Cl,"inconclusive: 18.4 µM [activator, single point]",
CNC(=O)/C(C#N)=C/c1c(N2CCN(c3ccc(OC)cc3)CC2)nc2c(C)cccn2c1=O,"inconclusive: 29.1 µM [inhibitor, single point]",
CCc1ccc(C(=O)Cn2cnc3cc([N+](=O)[O-])ccc3c2=O)cc1,"inconclusive: 20.6 µM [inhibitor, single point]",
CCC1(c2ccc(F)cc2)NC(=O)N(CC(=O)Nc2ccc(C)c(S(=O)(=O)N3CCOCC3)c2)C1=O (stereo not drawn),"inconclusive: 29.1 µM [inhibitor, single point]",
O=C(Nc1ccc2c(c1)OCO2)C(=O)c1c[nH]c2ccccc12,"inconclusive: 1.3 µM [activator, partial curve]",
O=C(CSc1ncccc1C(=O)O)NCCC1=CCCCC1,,inactive: 0.128%
CC1=Nc2cccc3cccc(c23)N1,,inactive: -7.39%
Cc1cccc(NS(=O)(=O)c2cc(C(=O)N3CCOCC3)ccc2Cl)c1,"inconclusive: 3.66 µM [inhibitor, single point]",
O=C(N[C@@H](Cc1ccccc1)C(=O)NC1CCCCC1)c1ccco1,"inconclusive: 11.6 µM [activator, partial curve]",
CCN(CC)CCCNC(=O)c1cn(CC)c2cc(N3CCN(C(=O)c4ccco4)CC3)c(F)cc2c1=O,,inactive: 1.42%
Fc1ccc2cnc(-c3ccccc3F)cc2c1,"inconclusive: 13 µM [activator, partial curve]",
CC(=O)N/N=C(/C)c1ccc(NC(=O)c2csc(C)c2C)cc1,"inconclusive: 20.6 µM [activator, partial curve]",
C[C@]12C(=O)N(c3ccccc3)C(=O)N1[C@H]1c3ccccc3OC[C@@H]1[C@H]2c1ccccc1,,inactive: -7.03%
O=C(Cc1ccsc1)NNC(=O)c1ccccc1O,,inactive: 3.58%
CCCCOc1ccc(/C=C2/Sc3ccccc3C2=O)cc1,"inconclusive: 5.8 µM [activator, full curve]",
CCOC(=O)/C(=N/Nc1ccccc1)c1csc(Nc2ccccc2)n1,"inconclusive: 32.6 µM [inhibitor, single point]",
COc1cc(CN2CCCC(C)C2)ccc1OCc1ccccc1 (stereo not drawn),"inconclusive: 16.4 µM [activator, single point]",

# Reprinted at random: 2 compounds from above.
Structure (SMILES),Potency,"activity change, negative = inhibition"
CCc1ccc(C(=O)Cn2cnc3cc([N+](=O)[O-])ccc3c2=O)cc1,"inconclusive: 20.6 µM [inhibitor, single point]",
CCN(CC)CCCNC(=O)c1cn(CC)c2cc(N3CCN(C(=O)c4ccco4)CC3)c(F)cc2c1=O,,inactive: 1.42%

# Remaining list, next part.

Structure (SMILES),Potency,"activity change, negative = inhibition"
Cc1ccc(C(=O)c2c[nH]c(C(=O)NCc3cccnc3)c2)cc1,,inactive: -13.9%
CCC(C)Sc1cccc(-c2nc3ccc(Cl)cn3c2NCc2ccccc2)c1 (stereo not drawn),"inconclusive: 7.08 µM [inhibitor, single point]",
Cc1cc2c(cc1S(=O)(=O)CCC(=O)N1CC(C)CC(C)C1)OCC(=O)N2 (stereo not drawn),,inactive: 7.87%
COc1ccc(-c2c(-c3ccc(OCC(=O)NN)cc3O)n[nH]c2C)cc1,"inconclusive: 29.1 µM [activator, single point]",
NNc1nc2ccccc2nc1C(F)(F)F,"inconclusive: 20.6 µM [inhibitor, single point]",
COc1ccc2c(ccc[n+]2CC(=O)c2ccc(C)cc2)c1,,inactive: -6.65%
COc1cc(NC(=O)CSc2ncnc3c2cnn3Cc2ccccc2)cc(OC)c1,"inconclusive: 18.4 µM [inhibitor, partial curve]",
CC(C)(C)NC(=O)c1ccc2c(c1)C(=O)N(C1CCCCC1)C2=O,"inconclusive: 16.4 µM [activator, partial curve]",
Cc1ccc(NNC(=O)c2ccno2)cc1Cl,,inactive: -4.87%
Cc1ccc2[nH]c(O)c(N=NC(=O)C3CC3c3ccccc3)c2c1Br (stereo not drawn),,inactive: -14.5%
COC(=O)c1ccccc1S(=O)(=O)N1CCC(C(=O)OC(C)C(=O)Nc2ccccc2OC)CC1 (stereo not drawn),"inconclusive: 11.2 µM [inhibitor, partial curve, poor fit]",
O=C(Nc1ccc(Cl)cc1)OCc1cc(-c2ccccc2)on1,,inactive: 4.31%
O=C1CC(c2ccc(F)cc2)CC2=C1C(c1ccc([N+](=O)[O-])o1)Nc1ccccc1N2 (stereo not drawn),"inconclusive: 23.1 µM [inhibitor, single point]",
COc1cc(/C=C/C(=O)c2ccc(O)cc2)ccc1OCC#N,"inconclusive: 29.1 µM [inhibitor, single point]",
CC(C)CC(=O)Nc1ccc2oc(-c3ccncc3)nc2c1,"inconclusive: 35.5 µM [activator, single point]",
COc1ccc(/C=C2\SC(=O)N(CCNC(=O)CN3C(=O)NC4(CCCC4)C3=O)C2=O)cc1,"inconclusive: 18.3 µM [activator, single point]",
N#Cc1c(NC(=O)c2ccc(Br)o2)n(-c2ccccc2)c2nc3ccccc3nc12,"inconclusive: 25.9 µM [activator, partial curve, poor fit]",
Cc1cc(C(=O)COC(=O)CNC(=O)c2ccco2)c(C)n1Cc1ccco1,"inconclusive: 32.6 µM [activator, partial curve, poor fit]",
O=C(N/N=C/c1cccnc1)c1ccc(NC(=O)c2ccccc2Cl)cc1,"inconclusive: 18.3 µM [inhibitor, single point]",
CCOc1ccccc1N=c1oc2cc(O)ccc2cc1C(=O)NCC1CCCO1 (stereo not drawn),"inconclusive: 8.2 µM [inhibitor, partial curve]",
N/C(=N\OC(=O)c1ccco1)c1cccc([N+](=O)[O-])c1,"inconclusive: 20.6 µM [activator, partial curve]",
